PubChem BioAssay AID1224826 – NIAID – 2016
Test: 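Regulators of Tlr4 signalling leading to Tnf-alpha expression in macrophages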 (primary screen). Cells: RAW264.7 G9 macrophages from mouse bearing reporters for p65 (GFP) and the Tnf promoter (mCherry). Knock-down reagent: siRNA pool against mouse genes, 100 nM. Duration: 16 h of LPS stimulation, after 2 days of siRNA transfection. Conditions: bacterial lipopolysaccharide (Salmonella minnesota R595), 10 ng/ml. Read-out: 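Nuclear mCherry signal of the Tnf promoter reporter measured by imaging after background removal, scaled to each plate median and turned into robust z-scores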. Reading the numbers: Tnf reporter robust z-score: higher = stronger Tnf promoter reporter signal after LPS. Active means: 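a well counts as active at a score of -1.3 or below (Tlr4 knock-down control median) or above 3 (raised signal); controls and wells holding fewer than 50 cells are excluded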. Calls: active = Tnf reporter clearly lowered or raised; inactive = no clear change in Tnf reporter.
Here is one part, drawn at random, of about 17,000 deposited reagents. About 1,110 of all reagents (6.6%) count as active. 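Active means lowered or raised reporter signal; replicate intensities are raw and not normalised per plate.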 Unmarked entries are inactive. Further read-outs or replicates are left out here.

Vopp1 (vesicular, overexpressed in cancer, prosurvival protein 1)
- Tnf reporter robust z-score: 0.62
- fewer than 50 cells in well: enough cells in well

Cyp19a1 (cytochrome P450, family 19, subfamily a, polypeptide 1)
- Tnf reporter robust z-score: 0.38
- fewer than 50 cells in well: enough cells in well

Wnt9b (WNT family member 9B)
- Tnf reporter robust z-score: -0.72
- fewer than 50 cells in well: enough cells in well

Bri3 (brain protein I3)
- fewer than 50 cells in well: fewer than 50 cells per well; well left out of calls

Cntrl (centriolin)
- Tnf reporter robust z-score: -1.11
- fewer than 50 cells in well: enough cells in well

Chac2 (ChaC, cation transport regulator 2)
- Tnf reporter robust z-score: 1.47
- fewer than 50 cells in well: enough cells in well

Polr3d (polymerase (RNA) III (DNA directed) polypeptide D)
- Tnf reporter robust z-score: -0.88
- fewer than 50 cells in well: enough cells in well

Or14j10 (olfactory receptor family 14 subfamily J member 10)
- Tnf reporter robust z-score: -1.21
- fewer than 50 cells in well: enough cells in well

Ifna11 (interferon alpha 11)
- Tnf reporter robust z-score: -0.8
- fewer than 50 cells in well: enough cells in well

Sema7a
- fewer than 50 cells in well: fewer than 50 cells per well; well left out of calls

Or9k2 (olfactory receptor family 9 subfamily K member 2)
- fewer than 50 cells in well: fewer than 50 cells per well; well left out of calls

Vmn1r6 (vomeronasal 1 receptor 6)
- Tnf reporter robust z-score: 5.48 (active)
- fewer than 50 cells in well: enough cells in well

Stradb (STE20-related kinase adaptor beta)
- Tnf reporter robust z-score: 0.11
- fewer than 50 cells in well: enough cells in well

Med28 (mediator complex subunit 28)
- Tnf reporter robust z-score: 0.35
- fewer than 50 cells in well: enough cells in well
